Reference: article PMC4571948
Results are given in words; binding and its absence hold for the method and conditions named. In cells and extracts the contact can be indirect. A yes stands for co-enrichment or nearness to the bait. Other partners may have been found.

Sequences of proteins named here, by UniProt entry; tags and fusion partners are left off. Residues count along the entry.
UniProt Q80TN5, residues 1-305: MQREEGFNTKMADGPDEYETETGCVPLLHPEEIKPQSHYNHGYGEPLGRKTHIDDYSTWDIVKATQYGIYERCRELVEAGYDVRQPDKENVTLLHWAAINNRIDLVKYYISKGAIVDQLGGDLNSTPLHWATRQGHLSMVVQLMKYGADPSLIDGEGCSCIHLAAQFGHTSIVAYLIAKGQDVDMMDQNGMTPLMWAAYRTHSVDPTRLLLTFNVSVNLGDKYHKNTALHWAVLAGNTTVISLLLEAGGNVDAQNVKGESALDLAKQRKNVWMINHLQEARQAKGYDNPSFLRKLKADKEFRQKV

Molecular target: GST-17NAnk (GST-tagged N-terminal (1–305) zDHHC17) (murine) (UniProt Q80TN5)
Test: affinity purification with mass spectrometry; GST-17NAnk pulldown of rat brain proteins, SDS-PAGE, Coomassie; gel slices with bands missing from control GST pulldowns identified by mass spectrometry; only the target purified

B1: rat MAP6 (from rat brain proteins) (protein, UniProt Q63560 1-952)
chain: MAWPCITRACCIARFWNQLDKADIAVPLVFTKYSEATEHPGAPPQPPAPPQPGLAPPSRAVAIETQPAQGESDAVARATGPAPGPSGDRETAAAPGRSGLGLGAASGSTSGSGPADSVMRQDYRAWKVQRPEPSCRPRSEYQPSDAPFERETQYQKDFRAWPLPRRGDHPWIPKPVQIPATSQPSPPVLGMPKRRPQSQERGPIQLSADARDPEGAGGAGVPAAGKASGADQRDTRRKAGPAWMVTRTEGHEEKPLPPAQSQTQEGGPAAGKASGADQRDTRRKAGPAWMVTRTEGHEEKPLPPAQSQTQEGGPAAGKASGADQRDTRRKAGPAWMVTRTEGHEETPLPPAQSQTQEGGPAAGKASGADQRDTRRKAGPAWMVTRTEGHEETPLPPAQSQTQEGGPAAGKASGADERDTRRKAGPAWMVRRSEGHEQTTAAHAQGTGPEGGKGRAVADALNRQIREEVTSTVSSSYRNEFRAWTDIKPVKPIKAKPQYKPPDDKMVHETSYSAQFKGEASKPTTADNKVVDRRRIRSLYSEPFKESPKVEKPSVQSSKPKKTSTSQKPLRKAKDKQVASGQAAKKKTTESPSATKPDDKEQSKEMNNKLAEAKESRVKPTSDKNQGPVAKEPHKDQGPVAPGLPKGQGPAVQEPLKDQGPMVPGLPKDQAPVVPGSLKGQSPTAPGPPKDQGAVLLGPMKDLGPVAPASVKDQDHMASELLKNKDSVPLAPAKAQSPLLPEPLKNQSPVVPARAKDQSFPAPAPTPLKDPGPVIPEPEKDGAPMVPERRKDQNASIMASLKNEAPVASESVKNQGLGGPEPAKDTGTDLKGHGSVFVAPVKSQGPVVPEPTKGQDPIIPALAKDQGPILPEPPKNQGPPVVLGPIKNQDPVIPVPLKGQDPVVPAPTKDPGPTAPDPLKSQGPRGPQLPTVSPSPPVMIPTVPHAEYIEGSP
  binding: binds
